We go through one sequence from patent US20020165153.

Amino acid sequences for entries named in this document (tags omitted). A change or cut given only in a name is not applied to a line headed by its entry.
UniProt P15336: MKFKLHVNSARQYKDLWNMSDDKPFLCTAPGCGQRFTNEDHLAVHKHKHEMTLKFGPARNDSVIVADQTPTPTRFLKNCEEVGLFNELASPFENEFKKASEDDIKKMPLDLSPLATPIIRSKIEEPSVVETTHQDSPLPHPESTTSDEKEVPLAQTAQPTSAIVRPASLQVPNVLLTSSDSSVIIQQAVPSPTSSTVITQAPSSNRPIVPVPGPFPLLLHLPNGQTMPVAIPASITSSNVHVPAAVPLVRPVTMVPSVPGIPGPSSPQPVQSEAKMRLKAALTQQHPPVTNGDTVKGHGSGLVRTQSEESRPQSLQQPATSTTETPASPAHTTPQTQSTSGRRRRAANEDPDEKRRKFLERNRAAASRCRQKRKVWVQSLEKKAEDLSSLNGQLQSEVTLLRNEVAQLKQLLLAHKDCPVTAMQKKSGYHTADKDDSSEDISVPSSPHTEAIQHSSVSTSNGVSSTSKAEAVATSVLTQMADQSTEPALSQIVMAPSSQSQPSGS

Data set [1] addresses ATF2-m2 homodimer ATF2 leucine zipper replaced by SEQ 19 (g2 L to R, g3 E to V) (UniProt P15336). Put plainly: binding assay. The conditions noted are these: only core motif of the 20 bp probe printed; only the site is given.
In data set [2] the test system is ATF2-m2/cJun wt heterodimer ATF2 leucine zipper replaced by SEQ 19 (g2 L to R, g3 E to V). Put plainly: binding assay. The conditions noted are these: in contrast to ATF2-m1 and m5; only the site is given.

For at least one entry, the source does not settle the construct or the ends of the probe. For some assays here: The comparison behind a weaker result is the experiment's own reference, which may not be listed here.

As to “TTACCTCA (double strand) [20 bp Jun/ATF2 oligonucleotide (core motif)]”, the binding result is given as “binds more weakly” in data set [1] and “binds” in data set [2].
